The supplement of paper PMC12823440, “Inhibitors supercharge kinase turnover through native proteolytic circuits” (Nature, 2025)
Structures can show the parent of a compound that is named as a salt. This is one part of the list. The calls rarely recur for the same compound in another form.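 Kinases, fused to nanoluciferase, were expressed in K562 cells; luminescence was measured every 4 h from 2 to 18 h as percent of control (DMSO = 100%, positive control = 0%). A time point is decreased if signal falls significantly (2 sigma). Hits were called by the authors by a rule that is not shown; the count of time points alone does not decide it.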

Chains of the proteins cited; added tags and fusions are not shown. Lines headed by an entry give the natural chain unless they say otherwise; changes in a name come on top.
UniProt P36888, whole entry: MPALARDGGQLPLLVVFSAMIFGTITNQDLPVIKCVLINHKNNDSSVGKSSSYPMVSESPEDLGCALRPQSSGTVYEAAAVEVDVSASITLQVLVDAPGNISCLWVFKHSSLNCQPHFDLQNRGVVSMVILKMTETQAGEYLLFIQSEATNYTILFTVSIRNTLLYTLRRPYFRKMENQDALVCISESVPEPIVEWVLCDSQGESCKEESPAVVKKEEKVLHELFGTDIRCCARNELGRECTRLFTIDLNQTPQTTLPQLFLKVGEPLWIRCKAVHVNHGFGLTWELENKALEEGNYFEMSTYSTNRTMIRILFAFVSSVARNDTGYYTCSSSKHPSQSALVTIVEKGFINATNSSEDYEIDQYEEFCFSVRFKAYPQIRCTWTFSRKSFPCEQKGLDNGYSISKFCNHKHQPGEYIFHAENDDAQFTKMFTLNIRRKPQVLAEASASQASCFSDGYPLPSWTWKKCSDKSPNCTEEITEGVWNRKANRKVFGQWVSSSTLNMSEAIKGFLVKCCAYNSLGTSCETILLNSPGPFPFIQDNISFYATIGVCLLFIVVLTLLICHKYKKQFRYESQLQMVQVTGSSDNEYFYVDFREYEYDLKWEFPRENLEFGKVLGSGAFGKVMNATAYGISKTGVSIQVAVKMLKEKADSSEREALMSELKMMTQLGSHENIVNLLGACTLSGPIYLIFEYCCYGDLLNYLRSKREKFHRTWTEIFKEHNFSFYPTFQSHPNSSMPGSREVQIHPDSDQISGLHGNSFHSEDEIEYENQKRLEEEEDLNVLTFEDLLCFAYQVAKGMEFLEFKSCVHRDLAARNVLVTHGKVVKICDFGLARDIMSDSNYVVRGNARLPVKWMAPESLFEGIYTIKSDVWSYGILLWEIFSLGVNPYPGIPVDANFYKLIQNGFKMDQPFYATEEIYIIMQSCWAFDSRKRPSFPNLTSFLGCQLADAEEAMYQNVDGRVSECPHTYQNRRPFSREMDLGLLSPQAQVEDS
UniProt P49840: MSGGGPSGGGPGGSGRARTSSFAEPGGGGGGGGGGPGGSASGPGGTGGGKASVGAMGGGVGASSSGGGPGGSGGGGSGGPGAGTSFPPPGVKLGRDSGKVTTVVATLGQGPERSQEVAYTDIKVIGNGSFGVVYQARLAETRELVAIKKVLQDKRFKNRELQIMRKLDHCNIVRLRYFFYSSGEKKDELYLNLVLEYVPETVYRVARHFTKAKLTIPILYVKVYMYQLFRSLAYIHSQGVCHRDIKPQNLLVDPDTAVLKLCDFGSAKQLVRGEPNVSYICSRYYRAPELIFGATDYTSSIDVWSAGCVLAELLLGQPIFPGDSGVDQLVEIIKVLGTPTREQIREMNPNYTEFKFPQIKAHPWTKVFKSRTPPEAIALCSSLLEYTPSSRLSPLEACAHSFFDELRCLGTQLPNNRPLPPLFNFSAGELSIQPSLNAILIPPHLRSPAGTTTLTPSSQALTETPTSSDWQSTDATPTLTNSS
UniProt P14616: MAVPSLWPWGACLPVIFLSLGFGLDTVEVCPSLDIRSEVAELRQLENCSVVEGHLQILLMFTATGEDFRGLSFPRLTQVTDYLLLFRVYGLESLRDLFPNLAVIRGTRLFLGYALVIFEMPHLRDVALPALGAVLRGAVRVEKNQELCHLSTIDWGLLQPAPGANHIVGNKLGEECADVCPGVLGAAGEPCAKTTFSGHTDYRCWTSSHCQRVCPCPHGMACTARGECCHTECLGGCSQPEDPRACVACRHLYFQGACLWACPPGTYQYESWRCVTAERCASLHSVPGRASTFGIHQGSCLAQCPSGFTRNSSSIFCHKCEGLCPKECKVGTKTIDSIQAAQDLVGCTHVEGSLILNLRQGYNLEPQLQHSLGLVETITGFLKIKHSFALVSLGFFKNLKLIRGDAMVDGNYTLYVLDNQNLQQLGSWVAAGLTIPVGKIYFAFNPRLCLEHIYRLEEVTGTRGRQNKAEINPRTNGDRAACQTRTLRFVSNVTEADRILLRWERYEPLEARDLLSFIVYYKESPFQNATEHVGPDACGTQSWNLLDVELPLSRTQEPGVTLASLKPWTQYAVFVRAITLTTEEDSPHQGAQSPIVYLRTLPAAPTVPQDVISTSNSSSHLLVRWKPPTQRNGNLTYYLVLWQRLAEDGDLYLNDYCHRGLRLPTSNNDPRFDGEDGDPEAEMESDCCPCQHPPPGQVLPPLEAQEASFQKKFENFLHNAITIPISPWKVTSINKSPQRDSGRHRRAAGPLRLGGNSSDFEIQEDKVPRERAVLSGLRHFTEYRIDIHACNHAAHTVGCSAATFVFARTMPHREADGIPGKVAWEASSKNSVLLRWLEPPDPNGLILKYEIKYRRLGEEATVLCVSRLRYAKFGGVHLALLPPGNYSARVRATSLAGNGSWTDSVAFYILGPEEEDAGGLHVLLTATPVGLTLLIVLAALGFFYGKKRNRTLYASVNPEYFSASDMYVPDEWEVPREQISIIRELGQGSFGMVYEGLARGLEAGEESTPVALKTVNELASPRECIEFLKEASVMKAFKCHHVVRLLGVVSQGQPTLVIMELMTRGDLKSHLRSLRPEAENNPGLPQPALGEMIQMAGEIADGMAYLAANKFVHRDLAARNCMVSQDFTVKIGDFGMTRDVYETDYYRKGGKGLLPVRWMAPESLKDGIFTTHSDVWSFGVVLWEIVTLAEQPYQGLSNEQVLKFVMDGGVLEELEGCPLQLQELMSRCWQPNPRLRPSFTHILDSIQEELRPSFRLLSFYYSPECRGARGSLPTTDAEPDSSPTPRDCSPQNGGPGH
UniProt P06239: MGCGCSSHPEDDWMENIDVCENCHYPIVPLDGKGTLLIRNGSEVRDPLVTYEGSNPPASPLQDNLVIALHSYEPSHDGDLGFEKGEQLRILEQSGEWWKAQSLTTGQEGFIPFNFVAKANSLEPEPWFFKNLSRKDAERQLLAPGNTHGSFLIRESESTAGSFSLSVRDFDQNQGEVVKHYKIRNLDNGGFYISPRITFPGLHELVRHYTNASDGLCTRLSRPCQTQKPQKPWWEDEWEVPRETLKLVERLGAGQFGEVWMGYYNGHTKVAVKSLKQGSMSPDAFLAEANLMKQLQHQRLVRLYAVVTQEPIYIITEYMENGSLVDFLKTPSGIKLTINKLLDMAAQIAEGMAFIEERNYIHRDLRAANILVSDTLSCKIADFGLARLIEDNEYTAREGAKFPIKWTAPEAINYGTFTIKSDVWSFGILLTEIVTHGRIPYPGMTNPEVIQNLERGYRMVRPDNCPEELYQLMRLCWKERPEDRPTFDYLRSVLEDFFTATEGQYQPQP
UniProt P53667: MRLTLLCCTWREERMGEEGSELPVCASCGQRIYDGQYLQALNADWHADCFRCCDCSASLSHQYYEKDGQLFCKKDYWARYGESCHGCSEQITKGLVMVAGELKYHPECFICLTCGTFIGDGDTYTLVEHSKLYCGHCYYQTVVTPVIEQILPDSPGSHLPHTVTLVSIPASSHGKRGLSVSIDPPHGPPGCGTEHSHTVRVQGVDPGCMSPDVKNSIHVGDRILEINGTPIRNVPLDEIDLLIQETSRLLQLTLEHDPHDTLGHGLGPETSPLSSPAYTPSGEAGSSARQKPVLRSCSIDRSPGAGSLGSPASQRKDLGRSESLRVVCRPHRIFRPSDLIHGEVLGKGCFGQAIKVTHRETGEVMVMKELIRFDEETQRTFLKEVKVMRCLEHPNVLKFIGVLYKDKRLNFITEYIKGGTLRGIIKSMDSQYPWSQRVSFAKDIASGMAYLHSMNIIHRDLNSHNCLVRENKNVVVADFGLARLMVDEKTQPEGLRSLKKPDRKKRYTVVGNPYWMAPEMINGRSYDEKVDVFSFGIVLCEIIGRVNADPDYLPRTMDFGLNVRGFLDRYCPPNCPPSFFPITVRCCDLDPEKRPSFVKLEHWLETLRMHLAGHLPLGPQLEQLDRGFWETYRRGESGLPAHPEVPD
UniProt Q8IWU2: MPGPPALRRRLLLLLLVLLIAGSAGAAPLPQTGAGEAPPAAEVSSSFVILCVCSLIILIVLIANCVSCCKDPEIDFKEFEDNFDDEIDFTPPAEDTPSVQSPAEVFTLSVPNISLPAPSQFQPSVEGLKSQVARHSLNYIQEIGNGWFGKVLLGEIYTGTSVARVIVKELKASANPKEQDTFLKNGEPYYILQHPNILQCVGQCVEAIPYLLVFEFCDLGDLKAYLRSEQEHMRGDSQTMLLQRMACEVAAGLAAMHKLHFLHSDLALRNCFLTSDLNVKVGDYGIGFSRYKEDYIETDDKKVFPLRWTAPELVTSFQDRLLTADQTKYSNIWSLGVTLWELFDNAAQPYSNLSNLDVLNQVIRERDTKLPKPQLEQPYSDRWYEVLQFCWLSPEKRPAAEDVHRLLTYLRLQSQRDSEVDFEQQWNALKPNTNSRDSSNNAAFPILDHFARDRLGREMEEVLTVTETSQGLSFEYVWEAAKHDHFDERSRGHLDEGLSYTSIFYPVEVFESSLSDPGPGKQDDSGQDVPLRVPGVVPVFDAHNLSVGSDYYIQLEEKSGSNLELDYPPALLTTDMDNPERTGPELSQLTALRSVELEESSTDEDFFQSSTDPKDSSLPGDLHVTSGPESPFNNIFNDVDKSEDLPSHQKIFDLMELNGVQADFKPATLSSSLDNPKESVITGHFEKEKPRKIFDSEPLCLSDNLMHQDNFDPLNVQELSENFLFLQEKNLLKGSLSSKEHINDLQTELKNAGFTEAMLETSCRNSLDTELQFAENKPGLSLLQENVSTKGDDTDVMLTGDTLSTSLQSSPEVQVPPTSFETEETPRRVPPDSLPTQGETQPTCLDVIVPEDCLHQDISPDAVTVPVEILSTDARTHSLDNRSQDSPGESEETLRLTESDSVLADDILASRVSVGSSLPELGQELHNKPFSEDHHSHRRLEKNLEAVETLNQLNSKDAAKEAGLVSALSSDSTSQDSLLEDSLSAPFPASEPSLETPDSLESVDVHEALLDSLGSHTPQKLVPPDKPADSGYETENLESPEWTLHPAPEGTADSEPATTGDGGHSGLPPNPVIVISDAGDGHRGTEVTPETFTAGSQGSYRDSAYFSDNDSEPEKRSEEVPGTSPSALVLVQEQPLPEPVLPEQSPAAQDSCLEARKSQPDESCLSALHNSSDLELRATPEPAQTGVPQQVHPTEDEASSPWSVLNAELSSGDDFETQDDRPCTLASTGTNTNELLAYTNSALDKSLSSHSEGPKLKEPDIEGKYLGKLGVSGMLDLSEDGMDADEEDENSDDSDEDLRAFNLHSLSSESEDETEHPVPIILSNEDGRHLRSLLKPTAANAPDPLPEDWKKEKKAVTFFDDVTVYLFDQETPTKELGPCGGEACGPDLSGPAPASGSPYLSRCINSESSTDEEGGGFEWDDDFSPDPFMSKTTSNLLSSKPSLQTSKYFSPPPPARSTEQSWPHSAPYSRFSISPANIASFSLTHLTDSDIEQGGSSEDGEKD
UniProt P49137, whole entry, looked up: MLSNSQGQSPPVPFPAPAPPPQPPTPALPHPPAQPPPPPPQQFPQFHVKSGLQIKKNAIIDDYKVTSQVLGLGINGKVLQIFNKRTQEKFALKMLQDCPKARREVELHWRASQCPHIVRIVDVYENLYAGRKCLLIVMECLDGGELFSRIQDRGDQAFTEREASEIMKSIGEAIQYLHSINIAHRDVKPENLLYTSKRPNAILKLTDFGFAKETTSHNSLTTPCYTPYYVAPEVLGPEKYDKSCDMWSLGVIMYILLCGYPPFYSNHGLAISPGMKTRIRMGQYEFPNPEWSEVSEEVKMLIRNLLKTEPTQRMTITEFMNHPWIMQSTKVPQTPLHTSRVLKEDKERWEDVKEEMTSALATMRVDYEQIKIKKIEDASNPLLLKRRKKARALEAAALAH
UniProt Q9BUB5: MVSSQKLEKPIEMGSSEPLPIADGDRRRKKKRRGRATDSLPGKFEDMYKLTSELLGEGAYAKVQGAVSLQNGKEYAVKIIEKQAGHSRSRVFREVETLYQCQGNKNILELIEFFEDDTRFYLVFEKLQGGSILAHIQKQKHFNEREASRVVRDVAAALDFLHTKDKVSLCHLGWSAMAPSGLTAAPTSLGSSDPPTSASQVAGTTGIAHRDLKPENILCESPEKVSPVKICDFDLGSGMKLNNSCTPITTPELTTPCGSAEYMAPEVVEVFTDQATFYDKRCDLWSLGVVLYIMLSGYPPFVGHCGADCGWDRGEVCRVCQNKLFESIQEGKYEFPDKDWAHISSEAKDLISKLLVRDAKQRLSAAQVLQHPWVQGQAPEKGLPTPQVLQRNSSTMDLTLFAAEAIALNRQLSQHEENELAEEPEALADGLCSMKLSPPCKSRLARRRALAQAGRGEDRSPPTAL

Tests used:
Assay in all cases: number of time points (of 5) at which kinase-Nluc abundance scored as decreased, DMSO-normalised (count); higher = more persistent destabilization
Conditions in all cases: K562; 2-18 h
FLT3 = FLT3 (UniProt P36888)
FYN = FYN (UniProt P06241)
GSK3A = GSK3A (UniProt P49840)
HER2 = HER2 (UniProt P04626)
INSRR = INSRR (UniProt P14616)
IRAK3 = IRAK3 (UniProt Q9Y616)
JAK1 = JAK1 (UniProt P23458)
LCK = LCK (UniProt P06239)
LIMK1 = LIMK1 (UniProt P53667)
LIMK2 = LIMK2 (UniProt P53671)
LMTK2 = LMTK2 (UniProt Q8IWU2)
LYN = LYN (UniProt P07948)
MAP2K1 = MAP2K1 (UniProt Q02750)
MAP2K2 = MAP2K2 (UniProt P36507)
MAP4K2 = MAP4K2 (UniProt Q12851)
MAPK1 = MAPK1 (UniProt P28482)
MAPK4 = MAPK4 (UniProt P31152)
MAPKAPK2 = MAPKAPK2 (UniProt P49137)
MKNK1 = MKNK1 (UniProt Q9BUB5)
NTRK2 = NTRK2 (UniProt Q16620)

Measured: number of time points

CC/C(=C(\c1ccccc1)c1ccc(OCCNC)cc1)c1ccccc1 [N-Desmethyltamoxifen (hydrochloride)] (2.5 µM)
0: all assays above

Cc1n[nH]c2ncc(C(=O)N3CCC[C@H]3c3ccc(Cl)cc3)cc12 (10 µM)
0: all assays above

COc1ccc(Cl)cc1N(CC(=O)Nc1ccc2c(c1)OCO2)S(=O)(=O)c1ccccc1 (2.5 µM)
0: all assays above

O=c1cc(-c2ccc(O[C@@H]3O[C@H](CO)[C@@H](O)[C@H](O)[C@H]3O)cc2)oc2cc(O)c([C@@H]3O[C@H](CO)[C@@H](O)[C@H](O)[C@H]3O[C@@H]3OC[C@H](O)[C@H](O)[C@H]3O)c(O)c12 [Vaccarin] (10 µM)
0: all assays above

At a glance, 2 of the compounds above:
CC/C(=C(\c1ccccc1)c1ccc(OCCNC)cc1)c1ccccc1 [N-Desmethyltamoxifen (hydrochloride)] (2.5 µM)
0: all assays above

Cc1n[nH]c2ncc(C(=O)N3CCC[C@H]3c3ccc(Cl)cc3)cc12 (10 µM)
0: all assays above

More results

CCc1cc(Nc2nccc(-c3c(-c4ccc(OC)c(C(=O)Nc5c(F)cccc5F)c4)nc4ccccn34)n2)c(OC)cc1N1CCC(N2CCN(S(C)(=O)=O)CC2)CC1 (2.5 µM)
4: LIMK2
0: all other assays above

Oc1ccc(-c2cnc3ccc(NCc4ccco4)nn23)cc1 [IRAK inhibitor 2] (2.5 µM)
1: FYN | LIMK1
0: all other assays above

CN1CCN(c2ccc(-n3cc(-c4ccncc4OCC4CCNCC4)cn3)cc2)CC1 [MELK-8a (hydrochloride)] (10 µM)
2: HER2 | INSRR | LIMK2
3: FYN | IRAK3 | LMTK2 | MKNK1
1: LYN | MAPK4
4: LIMK1
0: all other assays above

CCOC(=O)c1c(C)[nH]c(C=C2C(=O)Nc3ccccc32)c1C (10 µM)
0: all assays above

CC(C)n1c(CO)nc2c(F)cc(-c3nc(Nc4ccc(CN5CCNCC5)cn4)ncc3F)cc21 (10 µM)
2: MKNK1
1: LYN
4: FLT3 | INSRR | JAK1
3: FYN | HER2 | IRAK3 | LIMK2 | LMTK2 | NTRK2
0: all other assays above

Nc1ccc(-c2cccc(C(=O)Nc3cnc4nc(N5CCOCC5)oc4c3)n2)cn1 (10 µM)
1: GSK3A
0: all other assays above

COc1c(Nc2ncc(Cl)c(N[C@H]3[C@@H](C(N)=O)[C@@H]4C=C[C@H]3C4)n2)ccc2c1CC[C@@H](N1CCOCC1)CC2 (10 µM)
0: all assays above

Cc1nc2c(NCc3cccc(S(C)(=O)=O)c3)nccn2c1-c1ccc(O)c(F)c1 (10 µM)
0: all assays above

CC1(C)C=Cc2c(ccc(C(=O)/C=C/c3ccc(O)cc3)c2O)O1 [4-Hydroxylonchocarpin] (10 µM)
0: all assays above

Cc1ncc(-c2cc(F)c(O)c(F)c2)cc1-c1cc(F)c(O)c(F)c1 (10 µM)
0: all assays above

N#C/C(=C/c1ccc(O)c(O)c1)C(=O)N1CCc2ccccc21 [Tyrphostin AG 528] (10 µM)
0: all assays above

CC(C)=CCC[C@](C)(O[C@@H]1O[C@H](CO[C@@H]2O[C@H](CO)[C@@H](O)[C@H](O)[C@H]2O)[C@@H](O)[C@H](O)[C@H]1O)[C@H]1CC[C@]2(C)[C@@H]1[C@H](O)C[C@@H]1[C@@]3(C)CC[C@H](O[C@@H]4O[C@H](CO)[C@@H](O)[C@H](O)[C@H]4O[C@@H]4O[C@H](CO)[C@@H](O)[C@H](O)[C@H]4O)C(C)(C)[C@@H]3CC[C@]12C [Ginsenoside Rb1] (10 µM)
0: all assays above

CNC(=O)CN1CCC(Oc2cc3c(Nc4cccc(Cl)c4F)ncnc3cc2OC)CC1 [Sapitinib] (10 µM)
0: all assays above

Cc1ccc(Nc2cc(N[C@@H]3CCCC[C@@H]3N)nnc2C(N)=O)nc1C (2 µM)
0: all assays above

COc1cc2nccc(Nc3cccc(Oc4ccccc4)c3)c2cc1OC (2.5 µM)
0: all assays above

CS(=O)(=O)c1cccc(CNc2nc(Nc3ccc4c(c3)CCC(=O)N4)ncc2C(F)(F)F)c1 (10 µM)
0: all assays above

O=C(O)/C=C(\CCc1ccc(Cl)cc1)c1ccccc1 (10 µM)
0: all assays above

NC(=O)c1cnc(N[C@@H]2CCCC[C@@H]2N)nc1Nc1cccc(-n2nccn2)c1 (2.5 µM)
1: IRAK3
0: all other assays above

COc1ccc(-c2cc(=O)c3c(O)cc(O)cc3o2)cc1-c1c(O)cc(O)c2c(=O)cc(-c3ccc(O)cc3)oc12 [Bilobetin] (2.5 µM)
1: NTRK2
0: all other assays above

CC1=C(C#N)C(c2ccc3[nH]nc(C)c3c2)C(C#N)=C(C)N1 (10 µM)
0: all assays above
